Data as given in PubChem BioAssay AID1224826 (NIAID, 2016).

- Aim: 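Regulators of Tlr4 signalling leading to Tnf-alpha expression in macrophages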 (primary screen)
- Cell system: RAW264.7 G9 macrophages from mouse bearing reporters for p65 (GFP) and the Tnf promoter (mCherry)
- Reagents: siRNA pool against mouse genes, 100 nM
- Timing: 16 h of LPS stimulation, after 2 days of siRNA transfection
- Treatment: bacterial lipopolysaccharide (Salmonella minnesota R595), 10 ng/ml
- Measured: 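Imaged Tnf reporter mCherry in nuclei, minus background, normalised per plate to the median and expressed as robust z-scores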
- Direction: Tnf reporter robust z-score: higher = stronger Tnf promoter reporter signal after LPS; Tnf reporter intensity: higher = stronger Tnf promoter reporter signal
- Active means: 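Called active when robust z-score is at most -1.3, matching the median of the Tlr4 knock-down control, or over 3; control wells and wells with under 50 cells never active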
- Calls: active = Tnf reporter clearly lowered or raised; inactive = no clear change in Tnf reporter
This is an unselected part of about 17,000 reagents. About 1,110 of them (6.6%) count as active. 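Active means lowered or raised reporter signal; replicate intensities are raw and not normalised per plate.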

| target gene | Tnf reporter robust z-score | fewer than 50 cells in well | Tnf reporter intensity, replicate 1 | Tnf reporter intensity, replicate 2 | call |
| --- | --- | --- | --- | --- | --- |
| Krt25 (keratin 25) | -0.11 | enough cells in well | 167 | 58.9 | inactive |
| Enpp6 (ectonucleotide pyrophosphatase/phosphodiesterase 6) | -0.46 | enough cells in well | 211 | 114 | inactive |
| Ddr2 (discoidin domain receptor family, member 2) | 0.84 | enough cells in well | 227 | 224 | inactive |
| Mgat4f (MGAT4 family, member F) | – | fewer than 50 cells per well; well left out of calls | 100 | 36.7 | inactive |
| Or8d2b (olfactory receptor family 8 subfamily D member 2D) | 0.53 | enough cells in well | 224 | 108 | inactive |
| Edrf1 (erythroid differentiation regulatory factor 1) | 0.5 | enough cells in well | 289 | 108 | inactive |
| Ccbe1 (collagen and calcium binding EGF domains 1) | -0.78 | enough cells in well | 149 | 121 | inactive |
| Ugt2b35 (UDP glucuronosyltransferase 2 family, polypeptide B35) | -0.39 | enough cells in well | 132 | 167 | inactive |
| Or5bh3 (olfactory receptor family 5 subfamily BH member 3) | 0.49 | enough cells in well | 232 | 125 | inactive |
| Pln (phospholamban) | -0.16 | enough cells in well | 124 | 121 | inactive |
| Amn (amnionless) | 0.55 | enough cells in well | 187 | 216 | inactive |
| Inhbe (inhibin beta-E) | -1.09 | enough cells in well | 153 | 61.3 | inactive |
| Gabrq (gamma-aminobutyric acid type A receptor subunit theta) | 0.89 | enough cells in well | 308 | 329 | inactive |
| Ralgps1 (Ral GEF with PH domain and SH3 binding motif 1) | 1.32 | enough cells in well | 197 | 178 | inactive |
| Tgs1 (trimethylguanosine synthase 1) | -1.61 | enough cells in well | 138 | 78.9 | active |
| Rufy3 (RUN and FYVE domain containing 3) | -0.86 | enough cells in well | 96.2 | 105 | inactive |
| Lrfn4 | 1.12 | enough cells in well | 243 | 216 | inactive |
| Mcm7 (minichromosome maintenance complex component 7) | 0.8 | enough cells in well | 433 | 179 | inactive |
| Ccdc38 (coiled-coil domain containing 38) | – | fewer than 50 cells per well; well left out of calls | 221 | 99.1 | inactive |
| Xcr1 (chemokine (C motif) receptor 1) | 0.06 | enough cells in well | 310 | 40.2 | inactive |
| Flacc1 (flagellum associated containing coiled-coil domains 1) | -1.41 | enough cells in well | 66.9 | 101 | active |
| Klra17 (killer cell lectin-like receptor, subfamily A, member 17) | -0.51 | enough cells in well | 187 | 133 | inactive |
| H2-Ob (histocompatibility 2, O region beta locus) | -0.29 | enough cells in well | 185 | 196 | inactive |
| Gbgt1 (globoside alpha-1,3-N-acetylgalactosaminyltransferase 1) | 2.07 | enough cells in well | 305 | 309 | inactive |
| Hps1 (HPS1, biogenesis of lysosomal organelles complex 3 subunit 1) | 0.29 | enough cells in well | 275 | 194 | inactive |
| Oxt (oxytocin) | 0.23 | enough cells in well | 274 | 199 | inactive |
| Gm4861 (predicted gene 4861) | 0 | enough cells in well | 184 | 184 | inactive |
| Aicda (activation-induced cytidine deaminase) | -0.69 | enough cells in well | 124 | 136 | inactive |
| Camk1 (calcium/calmodulin-dependent protein kinase I) | 0.91 | enough cells in well | 268 | 196 | inactive |
| Cemip2 (cell migration inducing hyaluronidase 2) | -0.53 | enough cells in well | 97.3 | 106 | inactive |
| Gdf2 (growth differentiation factor 2) | 0.43 | enough cells in well | 302 | 262 | inactive |
| Large1 (LARGE xylosyl- and glucuronyltransferase 1) | -1.02 | enough cells in well | 167 | 92 | inactive |
| Cyp4a31 (cytochrome P450, family 4, subfamily a, polypeptide 31) | -1.12 | enough cells in well | 130 | 81.3 | inactive |
| Lama3 (laminin, alpha 3) | -0.53 | enough cells in well | 219 | 107 | inactive |
| Snapc1 (small nuclear RNA activating complex, polypeptide 1) | -0.27 | enough cells in well | 237 | 210 | inactive |
| 4933402J07Rik (RIKEN cDNA 4933402J07 gene) | -0.14 | enough cells in well | 180 | 69.9 | inactive |
| Vmn1r235 (vomeronasal 1 receptor 235) | 0.09 | enough cells in well | 122 | 94.5 | inactive |
| Mpc1 | -0.75 | enough cells in well | 90.5 | 120 | inactive |
| Ankmy1 (ankyrin repeat and MYND domain containing 1) | 0.49 | enough cells in well | 203 | 91.2 | inactive |
| Slc25a25 | 2.56 | enough cells in well | 186 | 120 | inactive |
| Snn (stannin) | -0.95 | enough cells in well | 192 | 144 | inactive |
| Kpnb1 (karyopherin subunit beta 1) | -1.61 | enough cells in well | 111 | 47.6 | active |
| Dppa4 (developmental pluripotency associated 4) | -0.53 | enough cells in well | 156 | 70.3 | inactive |
| Cyp2d13 (cytochrome P450, family 2, subfamily d, polypeptide 13) | 1.63 | enough cells in well | 292 | 268 | inactive |
| Pinx1 (PIN2/TERF1 interacting, telomerase inhibitor 1) | -1.32 | enough cells in well | 119 | 122 | active |
| Slc25a12 | -0.1 | enough cells in well | 92 | 104 | inactive |
| Cd68 (CD68 antigen) | 0.72 | enough cells in well | 280 | 284 | inactive |
| Ogfr (opioid growth factor receptor) | 2.02 | enough cells in well | 408 | 215 | inactive |
| Ccdc12 (coiled-coil domain containing 12) | -0.83 | enough cells in well | 182 | 38 | inactive |
| Tcf25 (transcription factor 25 (basic helix-loop-helix)) | 0.53 | enough cells in well | 245 | 178 | inactive |
| Tbc1d13 (TBC1 domain family, member 13) | -0.4 | enough cells in well | 102 | 73.8 | inactive |
| Ucp3 | 0.6 | enough cells in well | 266 | 289 | inactive |
| Noxo1 (NADPH oxidase organizer 1) | 1.73 | enough cells in well | 372 | 177 | inactive |
| Tmem139 (transmembrane protein 139) | -1.45 | enough cells in well | 89.8 | 75.2 | active |
| Cnga2 (cyclic nucleotide gated channel alpha 2) | -0.71 | enough cells in well | 71.3 | 207 | inactive |
| Ano5 (anoctamin 5) | 2.41 | enough cells in well | 399 | 281 | inactive |
| U2af2 (U2 small nuclear ribonucleoprotein auxiliary factor (U2AF) 2) | – | fewer than 50 cells per well; well left out of calls | 370 | 89 | inactive |
| Trp53bp2 (transformation related protein 53 binding protein 2) | 0 | enough cells in well | 225 | 235 | inactive |
